Inconclusive means that the source gave no clear call. Such entries were picked first, then a sample of the others. A potency beside an inconclusive call is a rough fit, not a confirmed value. Calls of active or inactive are those of the source. Rule for the calls: active = hit-call score of the fitted dose curve at least 0.9, where 1 is the maximum; inconclusive = response in the unintended direction; inactive = score below 0.9.
Assay: Tanguay_ZF_120hpf_CIRC_legacy: (Legacy) Oregon State University Tanguay Lab 120 Hour Post-fertilization zebrafish Assay for Circulatory Malformation (AID 2283651)
In short: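 Binary circulatory malformation call at 120 hpf by brightfield imaging of zebrafish larvae; chorion removed at 4 hpf, static exposure from 6 hpf in sealed dark plates at 28C, final DMSO 0.64%; non-mortality endpoints skipped if embryo died.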

SMILES	outcome	AC50
CCN(CC)C(=O)c1cc(S(=O)(=O)Cc2ccccc2)c(N2CCC(c3ccccc3)CC2)cc1N(CC)CCN(C)C	inactive	–
O=c1[nH]cc(F)c(=O)[nH]1	–	inconclusive: 33 µM
CSc1ccc(Oc2ccc(S(N)(=O)=O)cc2CN(C)C)cc1C	inactive	–
COCC(C)O (stereo not drawn)	–	inconclusive: 0.758 µM
ClC1=C(Cl)C(Cl)(Cl)C(Cl)=C1Cl	–	inconclusive: 29.4 µM
CCOC(=O)COc1ccc2c(c1)CC(NCC(O)c1cccc(Cl)c1)CC2 (stereo not drawn)	–	inconclusive: 0.653 µM
COc1cccc([C@H](O)C2CCN(CCc3ccc(F)cc3)CC2)c1OC	–	inconclusive: 3.01 µM
NCc1cccc(C2CCN(C(=O)c3ccc(C#Cc4ccccc4F)o3)CC2)c1	–	inconclusive: 0.537 µM
c1ccc2c(c1)Cc1ccccc1-2	–	inconclusive: 47.3 µM
C#C[C@]1(O)CC[C@H]2[C@@H]3CCC4=CC(=O)CC[C@@H]4[C@H]3CC[C@@]21C	–	inconclusive: 200 µM
O=CCCCC=O	–	inconclusive: 17 µM
O=C(c1ccccc1)C1CCCCC1	inactive	–
O=[N+]([O-])C(CO)(CO)CO	inactive	–

An excerpt of these results, bar-delimited:
SMILES | outcome | AC50
CCN(CC)C(=O)c1cc(S(=O)(=O)Cc2ccccc2)c(N2CCC(c3ccccc3)CC2)cc1N(CC)CCN(C)C | inactive | –
O=[N+]([O-])C(CO)(CO)CO | inactive | –

Source: PubChem BioAssay (EPA / NIEHS)
